Laboratory results reported in the supplement of paper PMC10849652.
Some of the results follow.

Amino acid sequences for entries named in this document (tags omitted). A change or cut given only in a name is not applied to a line headed by its entry.
UniProt Q9BXS0: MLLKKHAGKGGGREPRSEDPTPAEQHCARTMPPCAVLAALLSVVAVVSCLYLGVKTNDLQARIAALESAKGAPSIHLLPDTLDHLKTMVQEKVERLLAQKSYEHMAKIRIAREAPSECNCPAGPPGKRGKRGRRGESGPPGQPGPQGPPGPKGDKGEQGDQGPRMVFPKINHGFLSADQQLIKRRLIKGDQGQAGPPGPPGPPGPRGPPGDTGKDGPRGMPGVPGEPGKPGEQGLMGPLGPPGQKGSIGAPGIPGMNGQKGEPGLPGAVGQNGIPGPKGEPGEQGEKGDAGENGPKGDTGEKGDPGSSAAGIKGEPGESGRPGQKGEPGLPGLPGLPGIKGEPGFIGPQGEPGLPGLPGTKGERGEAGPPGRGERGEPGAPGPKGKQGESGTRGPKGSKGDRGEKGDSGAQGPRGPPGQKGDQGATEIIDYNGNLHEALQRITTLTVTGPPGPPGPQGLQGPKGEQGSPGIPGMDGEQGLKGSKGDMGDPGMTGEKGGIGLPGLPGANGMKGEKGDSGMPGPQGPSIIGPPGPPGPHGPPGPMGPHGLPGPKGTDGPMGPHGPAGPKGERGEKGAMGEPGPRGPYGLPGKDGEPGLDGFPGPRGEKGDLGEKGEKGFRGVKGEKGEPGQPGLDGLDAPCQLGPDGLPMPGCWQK
UniProt P02452, whole entry, looked up: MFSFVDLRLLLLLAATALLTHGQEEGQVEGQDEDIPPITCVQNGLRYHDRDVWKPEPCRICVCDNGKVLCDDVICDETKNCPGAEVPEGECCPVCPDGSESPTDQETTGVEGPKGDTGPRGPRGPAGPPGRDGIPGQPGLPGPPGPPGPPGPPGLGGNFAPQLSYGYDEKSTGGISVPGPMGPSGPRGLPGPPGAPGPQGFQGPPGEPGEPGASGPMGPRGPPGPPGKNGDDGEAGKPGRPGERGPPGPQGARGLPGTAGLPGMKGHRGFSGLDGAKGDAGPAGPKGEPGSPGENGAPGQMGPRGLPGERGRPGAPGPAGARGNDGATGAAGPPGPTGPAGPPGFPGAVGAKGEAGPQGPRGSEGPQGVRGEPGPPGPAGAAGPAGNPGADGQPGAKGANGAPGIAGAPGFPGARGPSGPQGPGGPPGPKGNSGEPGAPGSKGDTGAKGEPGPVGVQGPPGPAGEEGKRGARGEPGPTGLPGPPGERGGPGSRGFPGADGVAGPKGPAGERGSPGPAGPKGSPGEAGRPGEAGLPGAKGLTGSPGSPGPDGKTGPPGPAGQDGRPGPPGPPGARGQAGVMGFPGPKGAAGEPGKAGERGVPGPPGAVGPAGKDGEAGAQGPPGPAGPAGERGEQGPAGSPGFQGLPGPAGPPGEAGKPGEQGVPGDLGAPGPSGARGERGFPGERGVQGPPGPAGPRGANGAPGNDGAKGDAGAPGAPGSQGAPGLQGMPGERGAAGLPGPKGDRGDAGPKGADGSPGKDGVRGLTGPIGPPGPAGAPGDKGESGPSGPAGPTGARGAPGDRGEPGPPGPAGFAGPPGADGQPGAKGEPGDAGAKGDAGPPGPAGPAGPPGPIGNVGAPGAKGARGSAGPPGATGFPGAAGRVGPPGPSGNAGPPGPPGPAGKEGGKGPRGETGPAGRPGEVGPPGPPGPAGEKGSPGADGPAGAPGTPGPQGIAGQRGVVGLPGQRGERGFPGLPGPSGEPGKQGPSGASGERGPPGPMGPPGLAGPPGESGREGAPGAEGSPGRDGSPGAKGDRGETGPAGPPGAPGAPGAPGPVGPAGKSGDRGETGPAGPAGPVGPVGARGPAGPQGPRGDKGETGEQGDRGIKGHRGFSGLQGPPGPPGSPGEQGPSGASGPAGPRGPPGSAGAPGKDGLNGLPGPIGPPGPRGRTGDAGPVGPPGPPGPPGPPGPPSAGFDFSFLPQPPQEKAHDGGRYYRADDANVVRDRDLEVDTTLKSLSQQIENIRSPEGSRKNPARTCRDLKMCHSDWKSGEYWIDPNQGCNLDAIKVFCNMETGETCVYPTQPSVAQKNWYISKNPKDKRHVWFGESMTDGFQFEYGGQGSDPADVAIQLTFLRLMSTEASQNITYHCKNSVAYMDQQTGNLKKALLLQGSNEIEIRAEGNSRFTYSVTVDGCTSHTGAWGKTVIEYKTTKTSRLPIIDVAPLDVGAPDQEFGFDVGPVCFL
UniProt Q9UI42: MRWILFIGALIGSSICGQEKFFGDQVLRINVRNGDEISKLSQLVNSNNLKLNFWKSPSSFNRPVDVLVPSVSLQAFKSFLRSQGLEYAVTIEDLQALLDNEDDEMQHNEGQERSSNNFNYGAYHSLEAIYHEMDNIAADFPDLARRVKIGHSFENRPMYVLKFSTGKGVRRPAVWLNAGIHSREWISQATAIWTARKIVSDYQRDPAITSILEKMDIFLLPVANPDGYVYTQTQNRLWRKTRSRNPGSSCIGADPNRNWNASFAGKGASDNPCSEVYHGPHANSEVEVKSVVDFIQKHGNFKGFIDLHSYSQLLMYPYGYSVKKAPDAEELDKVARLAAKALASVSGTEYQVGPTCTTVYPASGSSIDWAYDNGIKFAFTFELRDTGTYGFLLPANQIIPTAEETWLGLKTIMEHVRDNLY
UniProt P57737: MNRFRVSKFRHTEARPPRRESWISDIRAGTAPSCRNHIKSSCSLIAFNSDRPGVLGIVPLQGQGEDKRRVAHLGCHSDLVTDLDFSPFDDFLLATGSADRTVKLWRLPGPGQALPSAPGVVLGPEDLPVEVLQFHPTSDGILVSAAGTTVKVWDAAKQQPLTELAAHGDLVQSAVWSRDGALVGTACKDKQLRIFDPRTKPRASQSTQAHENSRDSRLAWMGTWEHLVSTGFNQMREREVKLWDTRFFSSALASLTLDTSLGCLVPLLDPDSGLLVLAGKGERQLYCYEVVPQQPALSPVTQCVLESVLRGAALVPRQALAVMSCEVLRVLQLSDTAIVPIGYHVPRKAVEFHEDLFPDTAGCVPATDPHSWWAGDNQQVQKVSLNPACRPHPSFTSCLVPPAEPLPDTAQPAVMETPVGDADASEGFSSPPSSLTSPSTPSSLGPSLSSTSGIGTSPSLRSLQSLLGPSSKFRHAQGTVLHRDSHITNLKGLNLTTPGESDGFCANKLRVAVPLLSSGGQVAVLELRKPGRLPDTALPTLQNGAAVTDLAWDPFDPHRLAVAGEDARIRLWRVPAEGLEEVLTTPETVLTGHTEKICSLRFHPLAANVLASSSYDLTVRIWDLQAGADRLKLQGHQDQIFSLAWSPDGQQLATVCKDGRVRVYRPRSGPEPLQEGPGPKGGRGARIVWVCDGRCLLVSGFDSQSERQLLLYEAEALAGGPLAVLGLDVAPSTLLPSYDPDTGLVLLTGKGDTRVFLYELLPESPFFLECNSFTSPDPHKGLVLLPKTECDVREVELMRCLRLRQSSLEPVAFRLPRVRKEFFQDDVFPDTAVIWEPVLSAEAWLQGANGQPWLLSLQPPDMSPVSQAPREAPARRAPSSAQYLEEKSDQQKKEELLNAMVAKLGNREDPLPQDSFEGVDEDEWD
UniProt Q8NE35: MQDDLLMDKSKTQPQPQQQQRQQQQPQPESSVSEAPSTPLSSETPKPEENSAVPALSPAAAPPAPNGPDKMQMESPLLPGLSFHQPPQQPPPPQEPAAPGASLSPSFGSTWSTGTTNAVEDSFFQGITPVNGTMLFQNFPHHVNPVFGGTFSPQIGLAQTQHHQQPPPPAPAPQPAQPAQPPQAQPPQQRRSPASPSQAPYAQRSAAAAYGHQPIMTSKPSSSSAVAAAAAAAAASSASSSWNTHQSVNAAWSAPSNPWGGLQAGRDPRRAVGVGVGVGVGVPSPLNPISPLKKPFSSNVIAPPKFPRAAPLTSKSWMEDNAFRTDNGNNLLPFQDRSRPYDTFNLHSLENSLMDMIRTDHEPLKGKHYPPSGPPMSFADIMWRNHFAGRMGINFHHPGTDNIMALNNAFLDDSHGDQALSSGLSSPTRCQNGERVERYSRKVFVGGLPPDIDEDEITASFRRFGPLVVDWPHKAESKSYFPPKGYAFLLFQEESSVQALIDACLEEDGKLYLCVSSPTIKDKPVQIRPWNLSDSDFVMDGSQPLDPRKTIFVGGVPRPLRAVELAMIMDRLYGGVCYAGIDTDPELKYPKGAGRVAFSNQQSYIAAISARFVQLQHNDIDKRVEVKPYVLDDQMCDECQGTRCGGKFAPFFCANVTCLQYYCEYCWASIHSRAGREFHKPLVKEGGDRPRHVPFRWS
UniProt Q8NHY2, whole entry, looked up: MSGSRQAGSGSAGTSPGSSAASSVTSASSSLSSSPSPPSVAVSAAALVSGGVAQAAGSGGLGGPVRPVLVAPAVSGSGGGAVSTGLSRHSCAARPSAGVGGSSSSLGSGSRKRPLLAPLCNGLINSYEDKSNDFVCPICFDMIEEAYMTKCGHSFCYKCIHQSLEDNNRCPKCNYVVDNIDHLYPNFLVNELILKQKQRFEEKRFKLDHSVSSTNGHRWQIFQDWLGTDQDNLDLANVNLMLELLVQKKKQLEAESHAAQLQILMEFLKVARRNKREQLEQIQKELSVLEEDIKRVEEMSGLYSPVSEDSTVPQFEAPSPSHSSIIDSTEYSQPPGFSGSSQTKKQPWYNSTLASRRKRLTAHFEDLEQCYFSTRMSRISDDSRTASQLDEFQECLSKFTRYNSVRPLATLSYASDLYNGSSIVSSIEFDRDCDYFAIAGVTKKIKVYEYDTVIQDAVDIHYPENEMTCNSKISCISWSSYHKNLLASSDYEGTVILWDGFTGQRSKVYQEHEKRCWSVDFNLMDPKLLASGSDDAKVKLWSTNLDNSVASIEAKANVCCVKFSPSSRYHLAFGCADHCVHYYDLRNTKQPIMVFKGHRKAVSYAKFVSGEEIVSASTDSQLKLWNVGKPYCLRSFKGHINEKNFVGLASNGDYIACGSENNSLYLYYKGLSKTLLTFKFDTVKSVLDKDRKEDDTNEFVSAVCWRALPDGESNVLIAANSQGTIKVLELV
UniProt Q9UNS2: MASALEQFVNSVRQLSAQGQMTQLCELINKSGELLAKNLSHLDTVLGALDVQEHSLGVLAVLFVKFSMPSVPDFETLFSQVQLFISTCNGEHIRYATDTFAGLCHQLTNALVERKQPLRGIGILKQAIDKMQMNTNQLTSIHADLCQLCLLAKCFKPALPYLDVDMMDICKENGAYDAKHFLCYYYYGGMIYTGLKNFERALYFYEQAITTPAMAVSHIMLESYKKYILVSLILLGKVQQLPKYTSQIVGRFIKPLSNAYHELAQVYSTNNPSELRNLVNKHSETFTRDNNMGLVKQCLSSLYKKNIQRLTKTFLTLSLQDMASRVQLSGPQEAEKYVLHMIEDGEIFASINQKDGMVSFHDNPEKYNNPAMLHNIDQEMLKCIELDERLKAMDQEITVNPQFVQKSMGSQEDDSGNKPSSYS
UniProt Q96I36: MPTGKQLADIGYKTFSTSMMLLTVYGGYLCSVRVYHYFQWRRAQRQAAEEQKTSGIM
UniProt Q9NRU3: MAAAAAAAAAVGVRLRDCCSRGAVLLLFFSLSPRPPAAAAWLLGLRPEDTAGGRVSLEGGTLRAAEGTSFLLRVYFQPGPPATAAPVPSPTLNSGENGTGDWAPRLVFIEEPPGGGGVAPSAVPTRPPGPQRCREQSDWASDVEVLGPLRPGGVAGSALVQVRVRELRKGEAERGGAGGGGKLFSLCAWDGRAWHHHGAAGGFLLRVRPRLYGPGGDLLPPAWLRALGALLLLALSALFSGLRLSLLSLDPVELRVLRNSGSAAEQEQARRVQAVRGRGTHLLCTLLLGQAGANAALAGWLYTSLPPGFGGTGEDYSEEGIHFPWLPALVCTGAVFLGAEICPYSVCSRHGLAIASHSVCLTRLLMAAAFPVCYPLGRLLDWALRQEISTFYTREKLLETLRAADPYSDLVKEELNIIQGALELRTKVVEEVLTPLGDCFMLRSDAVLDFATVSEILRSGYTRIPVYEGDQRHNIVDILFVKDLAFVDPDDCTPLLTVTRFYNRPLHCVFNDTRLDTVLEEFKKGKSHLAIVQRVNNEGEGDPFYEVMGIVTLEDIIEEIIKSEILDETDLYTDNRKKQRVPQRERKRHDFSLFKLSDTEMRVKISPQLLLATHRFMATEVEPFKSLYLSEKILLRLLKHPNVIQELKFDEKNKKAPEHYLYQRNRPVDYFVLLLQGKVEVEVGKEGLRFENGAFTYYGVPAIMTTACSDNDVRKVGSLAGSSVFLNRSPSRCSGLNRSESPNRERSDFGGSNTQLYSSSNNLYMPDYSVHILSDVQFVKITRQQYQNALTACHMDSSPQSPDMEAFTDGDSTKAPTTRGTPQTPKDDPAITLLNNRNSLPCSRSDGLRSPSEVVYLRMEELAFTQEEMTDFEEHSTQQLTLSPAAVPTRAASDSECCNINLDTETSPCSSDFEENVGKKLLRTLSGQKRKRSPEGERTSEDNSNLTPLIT
UniProt Q8N9A8: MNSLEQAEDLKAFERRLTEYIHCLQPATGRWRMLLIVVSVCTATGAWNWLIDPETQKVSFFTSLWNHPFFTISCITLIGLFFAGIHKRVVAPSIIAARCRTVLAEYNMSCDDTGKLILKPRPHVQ
UniProt Q9P003: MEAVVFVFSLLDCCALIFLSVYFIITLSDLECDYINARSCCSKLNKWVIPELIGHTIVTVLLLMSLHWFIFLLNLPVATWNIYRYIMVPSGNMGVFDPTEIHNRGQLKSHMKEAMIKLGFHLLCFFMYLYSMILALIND

Columns and labels:
Test in all cases: log2 fold change, soluble protein after heating vs DMSO (PISA); higher = thermal stabilisation; K562 lysate, 10 uM; active = over 0.2 and 3.5 SD of the protein, either way, in both replicates (recomputed)
[1] = compound: CCn1cc(-c2ccnc3[nH]c(-c4cccc(CN(C)C)c4)cc23)c(-c2ccc(NC(=O)N(C)C)cc2)n1
In short: (§1)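 K562 pellets were dounce-homogenised in PBS pH 7.4 with 1 mM MgCl2, and the crude extract at 1 mg/mL protein was treated with 10 μM compound for 30 min. Aliquots were heated for 3 min across 48°C-58°C, pooled, and brought to 0.5% NP-40 at 4°C; soluble protein was the supernatant after 21,000xg for 90 min. Soluble protein was quantified by TMTpro 16plex LC-MS/MS with channel sums equalised, and reported as log2 fold change in thermal stability against DMSO controls, with values from duplicates.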

[2] = compound: CN1CCC(CNc2ccc3ncc(-c4cccc(OC(F)(F)F)c4)n3n2)CC1
In short: as §1

saracatinib = compound: CN1CCN(CCOc2cc(OC3CCOCC3)c3c(Nc4c(Cl)ccc5c4OCO5)ncnc3c2)CC1 [saracatinib]
In short: as §1

[3] = compound: CCCS(=O)(=O)Nc1ccc(F)c(C(=O)c2c[nH]c3ncc(Cl)cc23)c1F
In short: as §1

barasertib = compound: CCN(CCCOc1ccc2c(Nc3cc(CC(=O)Nc4cccc(F)c4)[nH]n3)ncnc2c1)CCOP(=O)(O)O [barasertib]
In short: as §1

volasertib = compound: CC[C@@H]1C(=O)N(C)c2cnc(Nc3ccc(C(=O)N[C@H]4CC[C@H](N5CCN(CC6CC6)CC5)CC4)cc3OC)nc2N1C(C)C [volasertib]
In short: as §1

[4] = compound: CCn1c(C(=O)N(C2CC2)C2CC2)cc2c3c(ncn3C)c(Nc3cc(C)n(C)n3)nc21
In short: as §1

vemurafenib = compound: CCCS(=O)(=O)Nc1ccc(F)c(C(=O)c2c[nH]c3ncc(-c4ccc(Cl)cc4)cc23)c1F [vemurafenib]
In short: as §1

sotrastaurin = compound: CN1CCN(c2nc(C3=C(c4c[nH]c5ccccc45)C(=O)NC3=O)c3ccccc3n2)CC1 [sotrastaurin]
In short: as §1

[5] = compound: CC[C@@H]1C(=O)N(C)c2cnc(Nc3ccc(C(=O)NC4CCN(C)CC4)cc3OC)nc2N1C1CCCC1
In short: as §1

Target | log2 fold change [1] | log2 fold change [2] | log2 fold change (saracatinib) | log2 fold change [3] | log2 fold change (barasertib) | log2 fold change (volasertib) | log2 fold change [4] | log2 fold change (vemurafenib) | log2 fold change (sotrastaurin) | log2 fold change [5]
COL6A1 (UniProt P12109) | inactive: 0.108 | inactive: 0.107 | – | – | – | – | – | – | – | –
CRACR2B (UniProt Q8N4Y2) | – | – | inactive: -0.032 | – | – | – | – | – | – | –
COL25A1 (UniProt Q9BXS0) | – | – | – | inactive: 0.207 | inactive: 0.08 | inactive: 0.228 | inactive: 0 | – | – | –
CPNE8 (UniProt Q86YQ8) | inactive: -0.033 | inactive: 0.126 | inactive: -0.09 | inactive: -0.3 | inactive: -0.359 | inactive: 0.042 | inactive: 0 | inactive: -0.429 | inactive: 0.082 | –
COQ8B (UniProt Q96D53) | inactive: 0.013 | inactive: -0.161 | – | – | – | – | – | – | inactive: -0.029 | inactive: -0.03
COMMD3-BMI1 (UniProt R4GMX3) | – | – | inactive: 0.016 | inactive: 0.203 | inactive: -0.088 | inactive: -0.004 | inactive: -0.024 | – | inactive: 0.012 | inactive: 0.059
COX17 (UniProt Q14061) | inactive: 0.083 | inactive: -0.055 | – | inactive: -0.019 | – | inactive: 0.056 | – | – | inactive: 0.114 | –
COL1A1 (UniProt P02452) | inactive: 0.009 | inactive: 0.066 | – | – | – | – | – | – | – | –
CPA4 (UniProt Q9UI42) | inactive: 0.084 | inactive: -0.148 | – | inactive: 0.142 | inactive: 0.357 | inactive: 0.046 | inactive: -0.062 | – | inactive: 0.019 | –
CORO7 (UniProt P57737) | inactive: 0.321 | inactive: 0.165 | inactive: 0.166 | – | – | – | inactive: -0.025 | inactive: -0.143 | inactive: 0.137 | inactive: 0.089
COPS2 (UniProt P61201) | inactive: 0.015 | inactive: -0.028 | inactive: -0.043 | inactive: 0.113 | – | inactive: 0.021 | – | – | inactive: 0.009 | inactive: 0.185
CPEB3 (UniProt Q8NE35) | – | – | – | – | – | – | inactive: -0.057 | – | inactive: 0.009 | –
COMTD1 (UniProt Q86VU5) | – | – | inactive: -0.064 | inactive: -0.083 | inactive: -0.133 | inactive: -0.059 | inactive: -0.039 | inactive: -0.033 | inactive: 0.051 | inactive: 0.002
CNOT7 (UniProt H0YBT3) | inactive: -0.04 | inactive: -0.222 | – | – | – | – | inactive: -0.132 | – | inactive: -0.011 | –
COP1 (UniProt Q8NHY2) | inactive: -0.269 | inactive: 0.032 | inactive: -0.071 | inactive: -0.027 | – | inactive: 0.012 | inactive: 0.022 | – | inactive: 0.019 | –
COL6A3 (UniProt P12111) | inactive: 0.254 | inactive: -0.19 | inactive: -0.039 | – | inactive: 0.347 | – | inactive: 0.086 | – | inactive: 0.031 | –
CPTP (UniProt Q5TA50) | inactive: -0.01 | inactive: -0.03 | inactive: 0.001 | – | – | – | inactive: 0.025 | inactive: -0.054 | inactive: 0.074 | inactive: -0.006
CORO6 isoform 5 (UniProt Q6QEF8) | inactive: 0.252 | inactive: -0.067 | – | inactive: 0.045 | inactive: -0.008 | inactive: 0.019 | – | – | inactive: -0.002 | –
COLEC11 isoform 10 (UniProt Q9BWP8) | inactive: -0.023 | inactive: -0.025 | inactive: 0.051 | – | inactive: -0.061 | – | inactive: 0.055 | inactive: -0.054 | – | inactive: -0.085

Target | log2 fold change [1] | log2 fold change [2] | log2 fold change (saracatinib) | log2 fold change [3] | log2 fold change (barasertib) | log2 fold change (volasertib) | log2 fold change [4] | log2 fold change (vemurafenib) | log2 fold change (sotrastaurin) | log2 fold change [5]
CPLX1 (UniProt O14810) | – | – | active: 0.893 | inactive: 0.057 | – | inactive: 0.029 | inactive: -0.074 | inactive: 0.034 | – | inactive: -0.026
CNK3/IPCEF1 isoform 2 (UniProt G9CGD6) | active: -1.81 | inactive: 0.506 | inactive: 0.053 | – | – | – | inactive: 0.078 | inactive: -0.062 | – | inactive: 0.056
COX7B (UniProt P24311) | inactive: 0.047 | inactive: -0.013 | inactive: -0.062 | inactive: -0.047 | – | inactive: 0.004 | inactive: -0.051 | inactive: 0.014 | inactive: -0.028 | inactive: -0.01
COPS3 isoform 2 (UniProt Q9UNS2) | inactive: -0.142 | inactive: 0.12 | – | inactive: -0.049 | – | inactive: -0.11 | – | inactive: 0.059 | – | inactive: 0.021
COL12A1 (UniProt Q99715) | – | – | inactive: 0.063 | inactive: 0.178 | – | inactive: -0.139 | – | inactive: 0.239 | inactive: -0.233 | inactive: 0.194
COPS9 (UniProt Q8WXC6) | – | – | – | inactive: -0.075 | – | inactive: 0.062 | inactive: -0.197 | – | – | –
CPNE2 (UniProt Q96FN4) | inactive: -0.274 | inactive: 0.219 | inactive: 0.009 | inactive: 0.001 | inactive: 0.032 | inactive: -0.076 | inactive: 0.047 | – | inactive: 0.05 | inactive: -0.063
COX14 (UniProt Q96I36) | – | – | – | inactive: -0.005 | – | inactive: 0.075 | – | – | inactive: 0.014 | –
CNNM1 (UniProt Q9NRU3) | – | – | inactive: -0.016 | – | – | – | – | inactive: 0.038 | – | inactive: 0.041
COL14A1 (UniProt Q05707) | inactive: 0.157 | inactive: -0.099 | inactive: -0.003 | inactive: -0.122 | inactive: 0.193 | inactive: -0.049 | inactive: -0.207 | inactive: -0.027 | inactive: 0.082 | –
COX10 (UniProt Q12887) | – | – | inactive: 0.031 | – | – | – | inactive: -0.099 | – | inactive: 0.005 | inactive: 0.11
CNTROB isoform 2 (UniProt Q8N137) | – | – | inactive: -0.002 | – | – | – | – | – | – | –
CNEP1R1 isoform 2 (UniProt Q8N9A8) | – | – | – | – | inactive: 0.074 | – | – | – | – | –
CNIH4 (UniProt Q9P003) | – | – | inactive: 0.021 | inactive: 0.064 | inactive: 0.585 | inactive: -0.077 | inactive: -0.19 | inactive: 0.217 | inactive: 0.066 | inactive: 0.051
CNNM2 (UniProt Q9H8M5) | inactive: -0.059 | inactive: 0.036 | inactive: -0.039 | inactive: 0.024 | – | inactive: -0.043 | inactive: -0.091 | inactive: 0.025 | inactive: 0.091 | inactive: 0
COA5 (UniProt Q86WW8) | inactive: 0.162 | inactive: -0.029 | inactive: 0.018 | – | inactive: -0.104 | – | inactive: -0.07 | inactive: -0.02 | inactive: 0.01 | inactive: 0.129
CPVL (UniProt Q9H3G5) | inactive: -0.107 | inactive: 0.097 | inactive: 0.084 | inactive: -0.035 | inactive: -0.094 | inactive: 0.019 | inactive: -0.035 | inactive: 0.108 | inactive: -0.049 | –
CNTRL (UniProt Q7Z7A1) | inactive: -0.062 | inactive: 0.121 | inactive: 0.063 | – | inactive: 0.011 | – | inactive: -0.014 | inactive: 0.01 | inactive: -0.006 | inactive: 0.03
COMMD6 isoform 2 (UniProt Q7Z4G1) | inactive: 0.013 | inactive: -0.087 | inactive: -0.03 | inactive: -0.007 | inactive: 0.28 | inactive: -0.143 | inactive: 0.14 | – | inactive: 0.028 | inactive: -0.106

Part of the list above, limited to log2 fold change (barasertib) and log2 fold change [5]:
Target	log2 fold change (barasertib)	log2 fold change [5]
CORO6 isoform 5 (UniProt Q6QEF8)	inactive: -0.008	–
CNEP1R1 isoform 2 (UniProt Q8N9A8)	inactive: 0.074	–
